Results are given in words; binding and its absence hold for the method and conditions named. Binding seen in cells or lysates may run through a third protein. Some results given as binding are weak or reduced against the parent protein; the word gives no strength.
Biological target: p65 subunit of NF-κB (rat (endogenous in primary astrocytes)) (UniProt Q7TQN4)
Assay: co-IP; lysates of primary cultured astrocytes transfected with wild-type- or ΔNLS-Ref-1 and treated with LPS for the times indicated; precipitated with anti-p65 antibody and protein G-A agarose beads overnight at 4 °C; immunoblot for p50

Protein sequences, listed by entry. Tags and fused reporters are not part of them. Residues count along the entry.
UniProt Q7TQN4: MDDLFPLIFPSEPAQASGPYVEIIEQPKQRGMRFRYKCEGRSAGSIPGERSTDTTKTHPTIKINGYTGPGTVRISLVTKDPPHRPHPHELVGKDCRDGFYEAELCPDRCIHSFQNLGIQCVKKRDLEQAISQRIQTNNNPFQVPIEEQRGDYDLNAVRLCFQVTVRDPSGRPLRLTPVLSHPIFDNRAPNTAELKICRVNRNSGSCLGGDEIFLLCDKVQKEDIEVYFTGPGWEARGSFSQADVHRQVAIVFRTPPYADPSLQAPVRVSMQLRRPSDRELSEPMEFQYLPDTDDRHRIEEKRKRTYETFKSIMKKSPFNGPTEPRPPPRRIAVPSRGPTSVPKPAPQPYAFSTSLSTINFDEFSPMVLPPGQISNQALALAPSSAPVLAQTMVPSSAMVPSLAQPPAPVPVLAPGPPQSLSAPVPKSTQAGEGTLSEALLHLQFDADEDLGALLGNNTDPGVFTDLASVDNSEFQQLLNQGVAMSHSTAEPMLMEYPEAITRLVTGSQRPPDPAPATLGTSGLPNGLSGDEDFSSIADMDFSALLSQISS
UniProt Q63369, residues 1-483: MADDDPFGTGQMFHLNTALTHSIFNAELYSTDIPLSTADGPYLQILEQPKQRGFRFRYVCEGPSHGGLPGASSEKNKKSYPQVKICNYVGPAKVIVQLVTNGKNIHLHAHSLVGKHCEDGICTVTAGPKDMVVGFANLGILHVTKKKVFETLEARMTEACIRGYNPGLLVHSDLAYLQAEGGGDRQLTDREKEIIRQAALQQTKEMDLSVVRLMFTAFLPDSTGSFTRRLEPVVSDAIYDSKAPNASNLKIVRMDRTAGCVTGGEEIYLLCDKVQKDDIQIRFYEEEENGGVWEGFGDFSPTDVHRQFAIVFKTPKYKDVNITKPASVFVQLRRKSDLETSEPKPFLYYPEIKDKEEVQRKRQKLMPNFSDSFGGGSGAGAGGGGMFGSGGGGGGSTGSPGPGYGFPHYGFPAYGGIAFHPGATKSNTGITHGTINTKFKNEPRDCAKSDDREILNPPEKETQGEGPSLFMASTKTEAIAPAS

p50, a NF-κB subunit (from UniProt Q63369 1-483)
binding: binds

From PMC5162091
